Results are given in words; binding and its absence hold for the method and conditions named. Binding seen in cells or lysates may run through a third protein. These calls come from enrichment with a bait or labelling near it, and not all partners need be listed.
T1: STX5 (human (endogenous in HEK293T)) (UniProt Q13190)
T1 sequence: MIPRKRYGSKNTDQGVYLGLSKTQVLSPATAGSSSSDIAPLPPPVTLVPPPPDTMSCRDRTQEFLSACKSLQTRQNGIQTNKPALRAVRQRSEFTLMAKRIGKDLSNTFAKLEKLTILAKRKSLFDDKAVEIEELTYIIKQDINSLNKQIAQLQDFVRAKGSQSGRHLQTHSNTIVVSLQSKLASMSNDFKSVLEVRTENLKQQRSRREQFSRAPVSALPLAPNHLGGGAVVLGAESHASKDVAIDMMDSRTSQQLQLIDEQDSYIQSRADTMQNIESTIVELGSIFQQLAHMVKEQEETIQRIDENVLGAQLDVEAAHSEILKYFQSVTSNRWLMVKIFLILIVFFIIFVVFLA

B1: BET1 (protein, UniProt O15155 1-118)
chain: MRRAGLGEGVPPGNYGNYGYANSGYSACEEENERLTESLRSKVTAIKSLSIEIGHEVKTQNKLLAEMDSQFDSTTGFLGKTMGKLKILSRGSQTKLLCYMMLFSLFVFFIIYWIIKLR
B2: YKT6 (protein, UniProt O15498 1-198)
chain: MKLYSLSVLYKGEAKVVLLKAAYDVSSFSFFQRSSVQEFMTFTSQLIVERSSKGTRASVKEQDYLCHVYVRNDSLAGVVIADNEYPSRVAFTLLEKVLDEFSKQVDRIDWPVGSPATIHYPALDGHLSRYQNPREADPMTKVQAELDETKIILHNTMESLLERGEKLDDLVSKSEVLGTQSKAFYKTARKQNSCCAIM
B3: VTI1B (protein, UniProt Q9UEU0 1-232)
chain: MASSAASSEHFEKLHEIFRGLHEDLQGVPERLLGTAGTEEKKKLIRDFDEKQQEANETLAEMEEELRYAPLSFRNPMMSKLRNYRKDLAKLHREVRSTPLTATPGGRGDMKYGIYAVENEHMNRLQSQRAMLLQGTESLNRATQSIERSHRIATETDQIGSEIIEELGEQRDQLERTKSRLVNTSENLSKSRKILRSMSRKVTTNKLLLSIIILLELAILGGLVYYKFFRSH

Target: T1, STX5 (human (endogenous in HEK293T))
Experiment: affinity purification with mass spectrometry

Row | binding | Binder
1 | binds | B1
2 | binds | B2
3 | binds | B3
